# Source: the supplement of paper PMC5949888
# Most values lie at the floor of the assay. Slopes are relative: functional sequences can read slightly below zero.
# Test system: Saccharomyces cerevisiae PS128 hsf1 delta, HSF1(1-493) fusion
# Assay: growth estimate (transactivation domain function in HSF1 fusion, heat-shock survival) (a.u. (slope of normalised read count over time)); higher = stronger growth at 37°C, i.e. more transactivation activity
# Details: library: random library
row,Substance,growth estimate
1,VTSVYI,< -0.25
2,VTSYEMVV,< -0.25
3,VTTRKAVRG,< -0.25
4,VTVFCGLWCDPWGC,< -0.25
5,VTYGVGITSPHPCSKTCVQN,< -0.25
6,VTYQIRPEE,< -0.25
7,VVA,< -0.25
8,VVADW,-0.0148
9,VVAERQTLKRSD,< -0.25
10,VVAFIKGGVPKG,< -0.25
11,VVCSRSTLCGYRLLGPQI,< -0.25
12,VVDHSTRLAPEFEVPAMPRA,< -0.25
13,VVDITIA,< -0.25
14,VVEIPNRCLDKDCTTKSPTR,< -0.25
15,VVGCLIGPESETT,< -0.25
16,VVGDTCMTRTIPL,< -0.25
17,VVGLRIFSNQTSGPVPNARL,< -0.25
18,VVGTLWVFEVQTLRLGVCPR,< -0.25
19,VVHCVSDLLAYCRVASCRHT,< -0.25
20,VVHVVYSITI,< -0.25
21,VVIKSVAFSFFTNVSLLLAL,-0.246
22,VVISKG,< -0.25
23,VVKHTC,< -0.25
24,VVKPNCRT,< -0.25
25,VVKRGGRILRCFLVTWAQLR,< -0.25

row,Substance,growth estimate
1,VVKRLEG,< -0.25
2,VVLCLLASNHISFECMLAVV,< -0.25
3,VVLIGRPLSCGRLSPMSSKP,< -0.25
4,VVLRERGASQGPV,< -0.25
5,VVLYKRTFWSPPLAGLNSGT,< -0.25
6,VVNAPKWPGIRISGREEPGS,< -0.25
7,VVNFERPMEPTGYQFWQGSW,< -0.25
8,VVNFP,< -0.25
9,VVNLDD,< -0.25
10,VVNT,< -0.25
11,VVP,< -0.25
12,VVPVTPGGRRSFR,< -0.25
13,VVQ,< -0.25
14,VVRAVAGDCNSGTG,< -0.25
15,VVRIIGA,< -0.25
16,VVRRCKALKRR,< -0.25
17,VVRRIAK,< -0.25
18,VVRVD,< -0.25
19,VVSCALRHWEFSVAP,< -0.25
20,VVSCNRGIQCGSLNDANTRA,< -0.25
21,VVSLSRAQEWLSPPMVMRDP,< -0.25
22,VVTRKGMGPGLSTRVTRRCD,< -0.25
23,VVVF,< -0.25
24,VVVSRVPLLLEFAGSH,< -0.25
25,VVVWSPGRGRATAGSKCVGR,< -0.25

row,Substance,growth estimate
1,VVYHRARSEGGRPMAKRRQR,< -0.25
2,VVYKLTESGSGRRFVERCTW,< -0.25
3,VVYRL,< -0.25
4,VVYSKPRPLQYATLFSLKAG,< -0.25
5,VWCAGSKIASRRAIGSMGAK,< -0.25
6,VWDIETLRVNSEIVRDSRRR,< -0.25
7,VWGN,< -0.25
8,VWGNGPRDAVQQEIGTITPL,< -0.25
9,VWLASMASGLGKNW,< -0.25
10,VWLRFPAN,< -0.25
11,VWLSIKIGKLLLQL,< -0.25
12,VWLTQR,< -0.25
13,VWLVD,< -0.25
14,VWQRRRREIRVRQLKLDYYS,< -0.25
15,VWRKLQSVRFASTVP,< -0.25
16,VWRLGSHKRARIGYHYAGPI,-0.201
17,VWRSTCRRGQGNGNVTA,< -0.25
18,VWSAYRQGLRVNRAYGVLQR,< -0.25
19,VWSRGRQGDR,< -0.25
20,VWTGSVVQILTHAAYWSLKL,< -0.25
21,VWTTRINWYFARCHQIISTP,< -0.25
22,VWTWSNRQGLGRD,< -0.25
23,VWVGSARYATRHQPPKTPCL,< -0.25
24,VWYI,< -0.25
25,VYAAVGLSRRTDGGKWAWGY,< -0.25

row,Substance,growth estimate
1,VYARGTTKLLALIITRPMVR,< -0.25
2,VYCSTLEARARSSSTSQLPD,< -0.25
3,VYFDCWFNLFVQWQVAQLLS,< -0.25
4,VYGDGTHQS,< -0.25
5,VYGGGVLSPKHVLVFCRLAW,< -0.25
6,VYGLCELREQFVKDTRRAFL,< -0.25
7,VYGMVICYKIVGRSCNGSVW,< -0.25
8,VYGRRSRSDLVHYALFPQCL,< -0.25
9,VYGSAT,< -0.25
10,VYIPLTPYITEPLRRKSITA,< -0.25
11,VYLELHAGADHSRTILVRRS,< -0.25
12,VYLFLGLGGHVSSKWIEHPR,< -0.25
13,VYMI,< -0.25
14,VYNTLGAN,< -0.25
15,VYPF,< -0.25
16,VYPSHTDQ,< -0.25
17,VYPSVSLVVTSRLTSERSVY,< -0.25
18,VYRAVRSRVPADR,< -0.25
19,VYRCS,-0.187
20,VYRTSRPKGSKNSQRQPV,< -0.25
21,VYRVLKSERS,< -0.25
22,VYSPGL,< -0.25
23,VYTALDNHS,< -0.25
24,VYTDSGDYDIYSP,< -0.25
25,VYTSVSLNLIVLRHVERTK,< -0.25

row,Substance,growth estimate
1,WAAEFGMALGNVSSLSGPEP,< -0.25
2,WAEVALELVVPRSVPRKWEM,< -0.25
3,WAG,< -0.25
4,WAIGGI,< -0.25
5,WALENGRYALKAALHNFY,< -0.25
6,WALHWSNCKLKVLYPVDKGH,< -0.25
7,WAPVMKSSSWLQRLPICAAL,< -0.25
8,WAR,< -0.25
9,WARDDYIPPPNPRSMLVGSA,< -0.25
10,WASSPAPGGDDI,< -0.25
11,WAVPEPLIATARSLLADPSG,-0.208
12,WAWYACFFLTEG,< -0.25
13,WAYRWALGEESVTSSYNSSR,< -0.25
14,WCGPATVRKIMQAVIPRQEA,< -0.25
15,WCGWYEFSSGKNHRGQARLD,< -0.25
16,WCISRQRYNIEGTGVALTKD,< -0.25
17,WCLISLPYNTRGPALYVKCR,< -0.25
18,WCPARMVAGYCGQPDTISGR,< -0.25
19,WCSEGVFGG,< -0.25
20,WCSQSIMMSYSARETASPSL,< -0.25
21,WCTHSCLESTHIRQEPVIRP,< -0.25
22,WDAHAANRIRLWGSGLAVER,< -0.25
23,WDARSSSVEVAFLCVWYNEL,< -0.25
24,WDATVEYFDSVT,-0.0633
25,WDAVNKWGERCKGLS,< -0.25

row,Substance,growth estimate
1,WDDANNTCHVSRTRVHFNSA,< -0.25
2,WDDIIAGDPLWVLSPITTPM,< -0.25
3,WDHLQRPGLDSESREVSDHR,< -0.25
4,WDHRMEQPSFSSASLVGQPF,< -0.25
5,WDIWGIVR,< -0.25
6,WDKAQLVISGVRRYVWGRPA,< -0.25
7,WDKLAT,< -0.25
8,WDQGWGRD,< -0.25
9,WDQIGVTRCGTQLFYSRRLP,< -0.25
10,WDRTSSKGVLPRRKFQLENW,< -0.25
11,WDRVAQADEVGHGLSSKLR,< -0.25
12,WDSNIRTANGYHVTAQHVVL,< -0.25
13,WDTTPVEKLGFFITYHGLYR,< -0.25
14,WEGACKSRMADVLSRPPCP,< -0.25
15,WEGDKTL,< -0.25
16,WEGLQSRIAHSLIIRFSYTL,< -0.25
17,WEP,< -0.25
18,WEPFSFGAQGGALALSENGW,< -0.25
19,WESRDSNVSAVHVIYPQHAH,< -0.25
20,WETPASTDWTQITRMSEY,-0.078
21,WEVWLYTFLRVARAYDSGTS,< -0.25
22,WFFA,< -0.25
23,WFLRDRLYCFNAIVTRKSAR,< -0.25
24,WFRWAMRCLFDVMFINSRGV,< -0.25
25,WFVRDSGLWKRVDARAEPRA,< -0.25

# Shown with bars between the fields: entries from further up
row | Substance | growth estimate
2 | WDDIIAGDPLWVLSPITTPM | < -0.25
5 | WDIWGIVR | < -0.25
18 | WEPFSFGAQGGALALSENGW | < -0.25
23 | WFLRDRLYCFNAIVTRKSAR | < -0.25

# (listing goes on)

row,Substance,growth estimate
1,WGFCWPSPLGSLWHNIRQEE,< -0.25
2,WGGAEMSE,< -0.25
3,WGGSPQEGFLHGHTGRCREP,< -0.25
4,WGGTCVREIVGHEGTRHLPR,-0.25
5,WGKAAAGASIRKDKRWG,< -0.25
6,WGLIGHPS,< -0.25
7,WGLKSQASSNAQRFC,< -0.25
8,WGLPSLECYLTPRSTTLAFR,< -0.25
9,WGPLDR,< -0.25
10,WGRAMTYVE,< -0.25
11,WGRNEEKLRGVTGNKCRFGS,< -0.25
12,WGRTVRWRLLASGFSTPSVG,< -0.25
13,WGRVAEGDKENGLVSAS,< -0.25
14,WGSELKELFGL,< -0.25
15,WGSRAESTC,< -0.25
16,WGSRSILSLRPYKIRTARTH,< -0.25
17,WGTKHVSFAGLLAPMQSAGN,< -0.25
18,WGVQCPGTGGGSWHFQMRQT,< -0.25
19,WGVTRVLRVGSFHVIWYFTG,< -0.25
20,WGWQSFADRASHASALVNRH,< -0.25
21,WHKHSNSADGA,< -0.25
22,WHRAGSLYKSNTLGMIRPGL,-0.219
23,WHWTEFRQ,< -0.25
24,WIAPPKDEGFA,< -0.25
25,WIAR,< -0.25

# Laid out differently: entries from further up.
row | Substance | growth estimate
9 | VWLASMASGLGKNW | < -0.25
11 | VWLSIKIGKLLLQL | < -0.25
25 | VYAAVGLSRRTDGGKWAWGY | < -0.25
1 | WAAEFGMALGNVSSLSGPEP | < -0.25
11 | WAVPEPLIATARSLLADPSG | -0.208
17 | WCLISLPYNTRGPALYVKCR | < -0.25

# Carrying on.

row,Substance,growth estimate
1,WIDRLCMTHGLSLKLRGGIG,< -0.25
2,WIEHRIGLWHSARVFQLDSS,< -0.25
3,WIFRVYASQT,< -0.25
4,WIGRSLPYSQRYATDFFPRA,< -0.25
5,WIGTNLGGIGW,-0.0201
6,WIHGRLTYEMSILGMKTTES,< -0.25
7,WIINNIKTAPRRAGGHFLRH,< -0.25
8,WILAHGSIYARLRVAPGIGR,< -0.25
9,WILLIRVEVFACALGTQAPQ,< -0.25
10,WINLVTRGRLECVCRPIVR,< -0.25
11,WIRYSS,-0.21
12,WITWGPGEGCFTRSERLATR,< -0.25
13,WIVEEPPSMNGGTGYKTAWV,< -0.25
14,WKGGVTWGYAVDVLPPG,< -0.25
15,WKGYQISCAGRR,< -0.25
16,WKKEVSYSSPKRPWKED,-0.205
17,WKRVTQRHQARNSTIISPRT,< -0.25
18,WKVALRHISLARGDLVGRPA,< -0.25
19,WKVEMIT,< -0.25
20,WKYFFVYLQNISGYSGLKTQ,-0.246
21,WLCEGSCASCITRANLARVP,< -0.25
22,WLFFMYTRSGNEANQAGDPK,< -0.25
